# From the supplement of paper PMC10338343
# ± gives the standard deviation. The entries are a selection whose mix differs from that of the whole data set. Many entries were measured with a wide error. Some of the results follow.
# Columns and labels:
# [1] = test system: MILI (PIWIL2) piRISC loaded with L1MC piRNA (26 nt); assay: pre-steady-state target cleavage rate (min^-1); higher = faster piRNA-guided slicing of the target; details: guide: L1MC piRNA 5'p-UAACUAAAUACUAUGCAAGCUGUAGG
# In short: (§1)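 In this Cleave-'n-Seq assay, uncleaved targets were sequenced and normalised to depth and to weakly complementary targets. They came from a transcribed, DNA-blocked target RNA library […] mixed with 1 nM active affinity-purified piRISC carrying one synthetic guide, with or without 500 nM GTSF1 partner protein, in HEPES–potassium acetate buffer at 33 °C for 0–8 or 0–960 min. After three trials were pooled and k3 was capped at 0.0001 min^-1, the pre-steady-state cleavage rate was obtained from a burst-and-steady-state fit.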
# [2] = test system: MIWI (PIWIL1) piRISC loaded with L1MC piRNA (30 nt); assay: as above; details: guide: L1MC piRNA 5'p-UAACUAAAUACUAUGCAAGCUGUAGGUCCU
# In short: as §1
# [3] = test system: EfPiwi piRISC loaded with L1MC piRNA (26 nt); assay: pre-steady-state target cleavage rate (min^-1); guide: L1MC piRNA 5'p-UAACUAAAUACUAUGCAAGCUGUAGG; MIWI and MILI are mouse PIWI proteins and EfPiwi is from a freshwater sponge; tags in brackets are library labels; higher = faster piRNA-guided slicing of the target
# In short: as §1
# [4] = auxiliary factor: none (no GTSF1)
# [5] = auxiliary factor: 500 nM mouse GTSF1
# [6] = auxiliary factor: 500 nM Ephydatia muelleri Gtsf1
# [7] = auxiliary factor: none (no Gtsf1)
sequence,measurement,setting,value
UCCUGGAUGUCCUUCCAUAGAAUUUAGUUA,pre-steady-state target cleavage rate,[1]; [4],0.000384 ± 0.011
same,pre-steady-state target cleavage rate,[2]; [5],0.00314 ± 0.0049
same,pre-steady-state target cleavage rate,[2]; [4],0.000696 ± 0.0068
same,pre-steady-state target cleavage rate,[3]; [6],0.000868 ± 0.0078
UCCUCCUACAGCUUGCAUACUAUUAAGUUA,pre-steady-state target cleavage rate,[1]; [4],0.000939 ± 0.0059
same,pre-steady-state target cleavage rate,[2]; [5],0.147 ± 0.022
same,pre-steady-state target cleavage rate,[2]; [4],0.00892 ± 0.0014
same,pre-steady-state target cleavage rate,[3]; [7],0.00055 ± 0.0082
UCCUGGAUGUCGAAGCAUAGUAUUUAGUA,pre-steady-state target cleavage rate,[1]; [4],0.00236 ± 0.0031
same,pre-steady-state target cleavage rate,[2]; [5],0.00126 ± 0.01
same,pre-steady-state target cleavage rate,[2]; [4],0.00223 ± 0.0035
same,pre-steady-state target cleavage rate,[3]; [6],0.000966 ± 0.0072
UCCUGCAUACAGCUUGCAUAGUAUUUAGUUA,pre-steady-state target cleavage rate,[1]; [5],0.554 ± 0.047
same,pre-steady-state target cleavage rate,[2]; [5],1.63 ± 0.12
same,pre-steady-state target cleavage rate,[2]; [4],0.0686 ± 0.013
same,pre-steady-state target cleavage rate,[3]; [6],0.11 ± 0.032
UCCUGGAUGUCCUUGCAUUGUAUUUAGUAA,pre-steady-state target cleavage rate,[1]; [4],0.0023 ± 0.0029
same,pre-steady-state target cleavage rate,[2]; [5],0.00258 ± 0.0061
same,pre-steady-state target cleavage rate,[2]; [4],0.00131 ± 0.0048
same,pre-steady-state target cleavage rate,[3]; [6],0.00131 ± 0.0053
UCCUGGAUGUCGAACCAUAGUAUGUUAGUUA,pre-steady-state target cleavage rate,[2]; [5],0.000148 ± 0.04
UCCUGGAUGUCGAAGCAUAGUAUUUAGAAA,pre-steady-state target cleavage rate,[2]; [4],0.00124 ± 0.0051
same,pre-steady-state target cleavage rate,[3]; [6],0.00121 ± 0.0048
UCCUGGAUGUCGAAGCUAGUAUUUAGUUA,pre-steady-state target cleavage rate,[2]; [4],0.000772 ± 0.0065
same,pre-steady-state target cleavage rate,[3]; [6],0.000702 ± 0.0082
UCCUGGAUGUCGAUGCAUAGUAUUUGAGUUA,pre-steady-state target cleavage rate,[2]; [4],0.000746 ± 0.0079
same,pre-steady-state target cleavage rate,[3]; [6],0.00103 ± 0.0076
UCCUGGAUGUCGAAGCAUAGUAUUUCGUUA,pre-steady-state target cleavage rate,[2]; [4],0.00127 ± 0.0044
same,pre-steady-state target cleavage rate,[3]; [6],0.000398 ± 0.0089
UCCUGGAUCAGCUACGAUAGUAUUUUCAAA,pre-steady-state target cleavage rate,[2]; [4],0.000164 ± 0.02
same,pre-steady-state target cleavage rate,[3]; [7],0.000598 ± 0.012
UCCUGGAUGUCGUUGCAUAGUAUUUUGAUA,pre-steady-state target cleavage rate,[2]; [5],0.0004 ± 0.023
same,pre-steady-state target cleavage rate,[3]; [6],0.000335 ± 0.011
UCCUGGAUGUCGAACGUAUGUAUUUUGUAA,pre-steady-state target cleavage rate,[2]; [4],0.000111 ± 0.048
same,pre-steady-state target cleavage rate,[3]; [7],0.000113 ± 0.036
UCCUGGAUGAGCUUGCAUAGUUAUUAGUAA,pre-steady-state target cleavage rate,[2]; [4],0.00177 ± 0.0048
same,pre-steady-state target cleavage rate,[3]; [6],0.00327 ± 0.0044
UCCUGGUACACCUUGCAUAGUAUUUACAAA,pre-steady-state target cleavage rate,[2]; [4],0.00274 ± 0.0032
same,pre-steady-state target cleavage rate,[3]; [6],0.00118 ± 0.0037
UCCUGCUACAGCUUCCAUAGUAUUUUCAAA,pre-steady-state target cleavage rate,[2]; [4],0.000241 ± 0.019
same,pre-steady-state target cleavage rate,[3]; [7],0.000321 ± 0.016
UCCUGGAUGUCGAACGUAUGAUUUUAGUUA,pre-steady-state target cleavage rate,[2]; [4],0.000106 ± 0.045
same,pre-steady-state target cleavage rate,[3]; [7],0.000122 ± 0.04
UCCUGGUACAGCUUCCAUAGUAUUUAGUAA,pre-steady-state target cleavage rate,[2]; [4],0.000411 ± 0.0066
same,pre-steady-state target cleavage rate,[3]; [6],0.00378 ± 0.0022
UCCUGGAUGUCCUCUGCAUAGUAUUUAGUUA,pre-steady-state target cleavage rate,[2]; [4],0.00245 ± 0.0031
same,pre-steady-state target cleavage rate,[3]; [6],0.00412 ± 0.003
UCCUGGAUGAGGUUGCAUAGUUUUUAGUUA,pre-steady-state target cleavage rate,[2]; [4],0.00277 ± 0.0039
same,pre-steady-state target cleavage rate,[3]; [6],0.00166 ± 0.0024
UCCUGGAUGUGCUUGCAUAGUAAAUAGAAA,pre-steady-state target cleavage rate,[2]; [4],0.000614 ± 0.014
same,pre-steady-state target cleavage rate,[3]; [6],0.000436 ± 0.011
UCCUGGAUGUCGAUGCAUAGAAUUUAGUUA,pre-steady-state target cleavage rate,[2]; [5],0.000545 ± 0.014
same,pre-steady-state target cleavage rate,[3]; [6],0.000324 ± 0.0087
UCCUGGAUGUCGAAGCCAUAGUAUUUAGUUA,pre-steady-state target cleavage rate,[2]; [4],0.000198 ± 0.018
same,pre-steady-state target cleavage rate,[3]; [6],0.00118 ± 0.0054
UCCUGGAUGUCGUUGCAUAGUAUUUGAGUUA,pre-steady-state target cleavage rate,[2]; [4],0.00139 ± 0.0067
same,pre-steady-state target cleavage rate,[3]; [6],0.000496 ± 0.0084
UCCUGGAUGUCGAAGCAUAUAUUUAGUUA,pre-steady-state target cleavage rate,[2]; [5],0.000543 ± 0.017
same,pre-steady-state target cleavage rate,[3]; [6],0.00031 ± 0.011
UCCUGGAACAGCUUGGUAAGUAUUUAGAAA,pre-steady-state target cleavage rate,[2]; [4],0.000808 ± 0.0082
same,pre-steady-state target cleavage rate,[3]; [6],0.00029 ± 0.011
UCCUGCUACAGCUUGCAUUCAAUUUUCAAA,pre-steady-state target cleavage rate,[2]; [4],0.000642 ± 0.011
same,pre-steady-state target cleavage rate,[3]; [6],0.000379 ± 0.0078
UCCUGGAUGUCGUUGCAUAGUAUUUAGUAA,pre-steady-state target cleavage rate,[2]; [4],0.00203 ± 0.0037
same,pre-steady-state target cleavage rate,[3]; [6],0.000508 ± 0.013
UCCUGGAUGAGGUAGCAUAGUAUUUAGUUA,pre-steady-state target cleavage rate,[2]; [4],0.00215 ± 0.0029
same,pre-steady-state target cleavage rate,[3]; [6],0.00309 ± 0.0041
UCCUGGAUCAGCUUGCAAUGUAUUUUCAAA,pre-steady-state target cleavage rate,[2]; [4],0.000888 ± 0.0062
same,pre-steady-state target cleavage rate,[3]; [6],0.000259 ± 0.013
UCCUGGAUGAGCUAGCAUAGUAUUUAGAAA,pre-steady-state target cleavage rate,[2]; [4],0.00104 ± 0.0044
same,pre-steady-state target cleavage rate,[3]; [7],0.0005 ± 0.016
UCCUGGAUGUCGUUGCAUACAAUUUAGUUA,pre-steady-state target cleavage rate,[2]; [4],0.000473 ± 0.014
same,pre-steady-state target cleavage rate,[3]; [6],0.000194 ± 0.017
UCCUGGAUGAGCUUGCAAGUAUUUAGUUA,pre-steady-state target cleavage rate,[2]; [4],0.00155 ± 0.0025
same,pre-steady-state target cleavage rate,[3]; [6],0.00199 ± 0.0043
UCCUGGAUGUCGAACGUUAGUAAAUAGUUA,pre-steady-state target cleavage rate,[2]; [4],0.000156 ± 0.035
same,pre-steady-state target cleavage rate,[3]; [7],< 0.0001
UCCUGGAUGUCGAUGCAUGGUAUUUAGUUA,pre-steady-state target cleavage rate,[2]; [4],0.00134 ± 0.0064
same,pre-steady-state target cleavage rate,[3]; [6],0.00175 ± 0.0054
UCCUGGAUGUCGGUGCAUAGUAUUUAGUUA,pre-steady-state target cleavage rate,[2]; [4],0.0013 ± 0.0063
same,pre-steady-state target cleavage rate,[3]; [6],0.00511 ± 0.0033
UCCUGGAUGUCGAACCAUAGUAUUAAGUAA,pre-steady-state target cleavage rate,[2]; [4],0.000302 ± 0.017
same,pre-steady-state target cleavage rate,[3]; [6],0.000712 ± 0.01
UCCUGGAUGUCCUUCCAUAGUAUUUACUUA,pre-steady-state target cleavage rate,[2]; [4],0.000459 ± 0.015
same,pre-steady-state target cleavage rate,[3]; [6],0.000808 ± 0.0078
UCCUCCUACAGCUUGCAUAGUUAUUUCAAA,pre-steady-state target cleavage rate,[2]; [4],0.000304 ± 0.0094
same,pre-steady-state target cleavage rate,[3]; [6],0.00266 ± 0.0043
UCCUGGAUCAGCUUGCAUAGUAAAAAGUUA,pre-steady-state target cleavage rate,[2]; [4],0.00109 ± 0.0033
same,pre-steady-state target cleavage rate,[3]; [6],0.000825 ± 0.0045
UCCUGGAACAGCUUGCAUAGUAAAAAGUUA,pre-steady-state target cleavage rate,[2]; [4],0.00236 ± 0.003
same,pre-steady-state target cleavage rate,[3]; [7],0.000623 ± 0.015
UCCUCCUAGUCCUUGCAUAGUAUUUUCAAA,pre-steady-state target cleavage rate,[2]; [4],0.00122 ± 0.0031
same,pre-steady-state target cleavage rate,[3]; [6],0.00265 ± 0.0046
UCCUGGAUGUCGAACGAGAGUAUUUAGUUA,pre-steady-state target cleavage rate,[2]; [4],0.000319 ± 0.013
same,pre-steady-state target cleavage rate,[3]; [6],0.000484 ± 0.0099
UCCUGGAUGUCGAGGCAUAGUAUUUAGUUA,pre-steady-state target cleavage rate,[2]; [4],0.00189 ± 0.0047
same,pre-steady-state target cleavage rate,[3]; [6],0.00166 ± 0.0049
UCCUGGAUGUCGAACCAUAGCUAUUUAGUUA,pre-steady-state target cleavage rate,[2]; [4],0.000228 ± 0.025
same,pre-steady-state target cleavage rate,[3]; [6],< 0.0001
UCCUGGUACACCAUGCAUAGUAUUUAGUUA,pre-steady-state target cleavage rate,[2]; [4],0.00202 ± 0.0029
same,pre-steady-state target cleavage rate,[3]; [6],0.00335 ± 0.0031
UCCUGGAUGUCGAUGCAUAGAAUUUAGAUA,pre-steady-state target cleavage rate,[2]; [4],0.000359 ± 0.016
same,pre-steady-state target cleavage rate,[3]; [6],0.000426 ± 0.015
UCCUGGAACAGCUUGCAUACAUUUUACAAA,pre-steady-state target cleavage rate,[2]; [4],0.000625 ± 0.0089
same,pre-steady-state target cleavage rate,[3]; [6],0.000193 ± 0.033
UCCUGGAUGUCCUUGCAUAGUAUAAAGUUA,pre-steady-state target cleavage rate,[2]; [4],0.00252 ± 0.0034
same,pre-steady-state target cleavage rate,[3]; [6],0.00138 ± 0.007
UCCUGCUACAGCUUGCAUAGAUAUUAGAAA,pre-steady-state target cleavage rate,[2]; [4],0.000104 ± 0.037
same,pre-steady-state target cleavage rate,[3]; [6],0.0015 ± 0.004
UCCUGGAUGUCGAACCAUAGUAUUUUGUUA,pre-steady-state target cleavage rate,[2]; [5],0.000207 ± 0.015
same,pre-steady-state target cleavage rate,[3]; [6],0.000238 ± 0.016
UCCUGGAUGUCGAUGCAUAGUAUUAUAGUUA,pre-steady-state target cleavage rate,[2]; [5],0.00214 ± 0.0056
same,pre-steady-state target cleavage rate,[3]; [6],0.00137 ± 0.0056
UCCUGGAUGUGGUUGGAUAGUAUUUAGUUA,pre-steady-state target cleavage rate,[2]; [4],0.00189 ± 0.0064
same,pre-steady-state target cleavage rate,[3]; [6],0.000268 ± 0.033
UCCUGGUACAGCUUGACAUAGUAUUUAGUUA,pre-steady-state target cleavage rate,[2]; [4],0.00195 ± 0.0041
same,pre-steady-state target cleavage rate,[3]; [7],0.000234 ± 0.047
UCCUGGAACAGGAAGCAUAGUAUUUAGUUA,pre-steady-state target cleavage rate,[2]; [4],0.00179 ± 0.0025
same,pre-steady-state target cleavage rate,[3]; [7],0.000506 ± 0.013
UCCUGCUAGUCCUUGCAUAGUAUUUAGAAA,pre-steady-state target cleavage rate,[2]; [4],0.00155 ± 0.004
same,pre-steady-state target cleavage rate,[3]; [6],0.00294 ± 0.0025

# Looked up one by one from the list above, 2 records:
sequence,measurement,setting,value
UCCUGCUAGUCCUUGCAUAGUAUUUAGAAA,pre-steady-state target cleavage rate,[2]; [4],0.00155 ± 0.004
UCCUGGUACACCUUGCAUAGUAUUUACAAA,pre-steady-state target cleavage rate,[2]; [4],0.00274 ± 0.0032

# Five entries from above in a different format.
sequence | measurement | setting | value
UCCUGGAUGUCCUCUGCAUAGUAUUUAGUUA | pre-steady-state target cleavage rate | [3]; [6] | 0.00412 ± 0.003
UCCUGGAUGAGGUUGCAUAGUUUUUAGUUA | pre-steady-state target cleavage rate | [2]; [4] | 0.00277 ± 0.0039
same | pre-steady-state target cleavage rate | [3]; [6] | 0.00166 ± 0.0024
UCCUGGAUGUGCUUGCAUAGUAAAUAGAAA | pre-steady-state target cleavage rate | [2]; [4] | 0.000614 ± 0.014
same | pre-steady-state target cleavage rate | [3]; [6] | 0.000436 ± 0.011
